# Measured values as given in PubChem BioAssay AID1671190 (National Center for Advancing Translational Sciences (NCATS), 2021).
# Amino acid sequences for entries named in this document (tags omitted). A change or cut given only in a name is not applied to a line headed by its entry.
# UniProt P18054: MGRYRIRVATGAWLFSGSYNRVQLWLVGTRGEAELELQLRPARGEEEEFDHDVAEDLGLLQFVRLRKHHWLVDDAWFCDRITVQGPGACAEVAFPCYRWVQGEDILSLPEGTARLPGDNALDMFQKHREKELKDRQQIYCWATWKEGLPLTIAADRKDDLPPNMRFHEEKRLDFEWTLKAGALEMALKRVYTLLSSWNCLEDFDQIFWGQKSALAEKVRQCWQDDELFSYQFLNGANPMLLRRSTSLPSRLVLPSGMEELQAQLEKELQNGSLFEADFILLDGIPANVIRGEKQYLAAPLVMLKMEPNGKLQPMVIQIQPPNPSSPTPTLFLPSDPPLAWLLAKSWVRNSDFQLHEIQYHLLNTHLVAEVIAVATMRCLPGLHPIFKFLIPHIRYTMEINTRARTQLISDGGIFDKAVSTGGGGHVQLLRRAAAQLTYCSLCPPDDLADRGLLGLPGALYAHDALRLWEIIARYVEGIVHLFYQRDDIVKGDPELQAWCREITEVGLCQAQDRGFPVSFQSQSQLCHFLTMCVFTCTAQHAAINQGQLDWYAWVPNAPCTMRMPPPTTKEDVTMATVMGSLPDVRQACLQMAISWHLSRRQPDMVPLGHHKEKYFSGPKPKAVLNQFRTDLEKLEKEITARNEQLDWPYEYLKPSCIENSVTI
# In all, about 580,000 compounds went through this assay and about 6,100 (1.1%) were called active. The shares of active, inactive and inconclusive entries below differ from those in the screen. Calls come from the whole dose curve; as a rule, active = well fitted inhibition curve with a large enough effect; inconclusive = small, poorly fitted or top-dose-only effect, or another doubt; inactive = no such curve, though single readings can be large or run the other way. Potencies of inconclusive entries are doubtful fits and often do not repeat.
# Molecular target: Polyunsaturated fatty acid lipoxygenase ALOX12 (Homo sapiens) (UniProt P18054)
# Assay: Primary qHTS assay for inhibitors of human arachidonate 12S-lipoxygenase (ALOX12): Round 2
# Details: purified 12hLO, xylenol orange hydroperoxide absorbance; activity change, negative = inhibition: at 108 µM (top of the series) unless noted
# Summary of the method: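 Hydroperoxide product was detected by ferrous iron/xylenol orange as the 573 to 405 nm absorbance ratio. Arachidonic acid at 40 uM (final) was turned over for 30 min at room temperature by 150 nM human 12hLO, pH 7.0 Hepes buffer, after 15 min compound preincubation.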
# % is set by controls: 0 for no effect and ±100 for the full control effect; potency is the fitted concentration of half-maximal effect.
SMILES,Potency,"activity change, negative = inhibition"
CC[C@]12c3[nH]c4cc(-c5ccco5)ccc4c3CCN1C(=O)[C@@H](CC(=O)NCc1ccco1)C[C@@H]2C(=O)N1CCN(C(=O)C2CC2)CC1,"inconclusive: 89.1 µM [inhibitor, single point]",
O=C(COc1cc(O)c2c(=O)cc(-c3ccccc3)oc2c1)N1CCCCC1,"inconclusive: 3.55 µM [inhibitor, full curve, poor fit]",
COC1CC(=O)C2OC(c3ccccc3)OCC2O1 (stereo not given),"inconclusive: 224 µM [inhibitor, partial curve, poor fit]",
Fc1ccccc1CN1CCN(c2ncccn2)CC1,active: 0.562 µM,
CC(C)c1ccc(CS(=O)(=O)Cc2ccc(C#N)cc2)cc1,"inconclusive: 1.26 µM [inhibitor, full curve, poor fit]",
O=C(O)CSc1cccnc1Sc1ccc(Cl)cc1,"inconclusive: 100 µM [inhibitor, single point]",
COc1ccc([C@H]2C[C@@H](O)[C@H](n3cc(C4CC4)nn3)CN2CC2CCCCC2)cc1,"inconclusive: 44.7 µM [inhibitor, partial curve, poor fit]",
CN(Cc1cccc(-c2nn[nH]n2)c1)C(=O)C1CCCN(CC(N)=O)C1 (stereo not given),"inconclusive: 3.16 µM [inhibitor, full curve]",
CCNC(=O)C1(C)CCN(C(=O)c2ccc3ccccc3c2)C1 (stereo not given),"inconclusive: 4.47 µM [inhibitor, full curve, poor fit]",
Cn1nc(C(=O)N2CCN(c3ccc(O)cc3)CC2)c2ccccc2c1=O,"inconclusive: 35.5 µM [inhibitor, partial curve, poor fit]",
CCOc1ccccc1NC(=O)c1c(NCc2sccc2C)sc2c1CCCCC2,"inconclusive: 141 µM [inhibitor, single point]",
CCOc1ccc(C2NC(=O)C(C#N)=C(S)N2c2ccc(C)cc2)cc1OC (stereo not given),"inconclusive: 2 µM [inhibitor, full curve, poor fit]",
Cc1nc(-c2ccc(NC(=O)CC(C)C)cc2)cs1,"inconclusive: 50.1 µM [inhibitor, partial curve, poor fit]",
CCC(C)N=C1CC(C)(C)CC(=O)/C1=C(/O)Cc1ccccc1 (stereo not given),,inactive: 1.5%
COc1ccc(C2C(C#N)=C(N)Oc3n[nH]c(C)c32)cc1COc1cc(C)c(Cl)c(C)c1 (stereo not given),"inconclusive: 141 µM [inhibitor, single point]",
CN(C)c1ccc(/C=N/NC(=O)c2ccc(N(C)C)cc2)cc1,,inactive: -43.2%
N#Cc1ccc2[nH]c(CO)c(-c3ccccc3)c2c1,"inconclusive: 50.1 µM [inhibitor, partial curve, poor fit]",
CCCn1c(N)c(C(=O)CSc2ncn[nH]2)c(=O)n(C)c1=O,,inactive: 39.2%
C=Cc1ccc(Cn2c(C(=O)O)c(CNCc3cc(Br)ccc3OC)c3ccc(C)cc32)cc1,"inconclusive: 158 µM [inhibitor, partial curve, poor fit]",
C/C(=N/Nc1ccc(S(N)(=O)=O)cc1[N+](=O)[O-])c1ccc(Br)cc1,"inconclusive: 0.0355 µM [inhibitor, full curve, poor fit]",
CC(=O)Oc1ccc2c(=O)c(Oc3ccccc3)c(C)oc2c1OC(C)=O,"inconclusive: 8.91 µM [inhibitor, full curve, poor fit]",
C[C@@H]1CN([C@@H](C)CO)C(=O)CCCn2nncc2CO[C@H]1CN(C)C(=O)Nc1ccc2c(c1)OCO2,,inactive: -2.22%

# Record cards (already shown):
# `CCOc1ccc(C2NC(=O)C(C#N)=C(S)N2c2ccc(C)cc2)cc1OC` (stereo not given) reads Potency: inconclusive: 2 µM [inhibitor, full curve, poor fit]
# `CCOc1ccccc1NC(=O)c1c(NCc2sccc2C)sc2c1CCCCC2` reads Potency: inconclusive: 141 µM [inhibitor, single point]

# Continuation:

SMILES,Potency,"activity change, negative = inhibition"
CCCN1C(=O)C2(c3ccccc31)c1c(oc3ccccc3c1=O)C(=O)N2CCO (stereo not given),,inactive: -15.8%
Cc1cccc(N2CCN(C(=O)CS(=O)(=O)c3cccc4nsnc34)CC2C)c1 (stereo not given),"inconclusive: 8.91 µM [inhibitor, full curve, poor fit]",
O=c1cc(C(O)C[N+](=O)[O-])occ1OCc1ccccc1 (stereo not given),"inconclusive: 100 µM [inhibitor, partial curve, poor fit]",
O=C(c1ccc(Cl)c(S(=O)(=O)NCc2ccco2)c1)N1CCN(c2ccc(F)cc2)CC1,,inactive: -5.16%
Cc1cccc(C(=O)OCC(=O)N2CCCCCC2)c1O,"inconclusive: 126 µM [inhibitor, partial curve, poor fit]",
COc1ccc2c(c1)[C@@H](NC(=O)c1c(C)noc1C)[C@H](C)[C@@H](c1ccccc1)N2Cc1cccc(F)c1,"inconclusive: 79.4 µM [inhibitor, partial curve, poor fit]",
CC/C(=N\O)c1cccs1,"inconclusive: 35.5 µM [inhibitor, single point]",
O=C(NC1CCCCC1)O[C@@H]1CO[C@H]2[C@@H]1OC[C@@H]2NC(=S)Nc1cccc2ccccc12,"inconclusive: 56.2 µM [inhibitor, partial curve]",
CC1CCC(Nc2ccc3cc(S(=O)(=O)N4CCCC4)ccc3n2)CC1 (stereo not given),active: 8.91 µM,
CCNc1nc(NCC)n2c(SCC(=O)Nc3ccccc3C(F)(F)F)nnc2n1,,inactive: -0.704%
CCOC(=O)c1ccc(NC(=S)NC(=O)c2cncc(Br)c2)cc1,,inactive: -13.5%
Cc1ccc(N(Cc2nc3nc(C)cc(C)n3n2)S(=O)(=O)c2ccc(C)cc2)cc1,"inconclusive: 2.24 µM [inhibitor, single point]",
O=C(c1ccccc1F)N1CCc2nc(-c3ccccc3)nc(-c3ccc(Cl)cc3)c2C1,"inconclusive: 56.2 µM [inhibitor, partial curve, poor fit]",
C[C@@H](NC(=O)N1CCC(n2cc(CO)nn2)CC1)c1ccc(F)cc1,"inconclusive: 8.91 µM [inhibitor, full curve]",
COc1ccc(-c2csc(NC(=O)c3ccccc3OCc3noc(C)n3)n2)cc1,"inconclusive: 112 µM [inhibitor, single point]",
Cc1cc(OCCCn2ccnc2)ccc1[N+](=O)[O-],,inactive: -18.7%
Cc1ccc(-c2nc(CS(=O)CC(=O)N3CCN(c4ccc(Cl)cc4)CC3)c(C)o2)cc1 (stereo not given),"inconclusive: 56.2 µM [inhibitor, partial curve, poor fit]",
CCOC(=O)c1cc(-c2ccc(OC)cc2)n[nH]1,,inactive: 119%
CCC(=O)NC(Nc1sc2c(c1C(=O)OC)CCC2)C(Cl)(Cl)Cl (stereo not given),,inactive: -24%
CN(C)CCNC(=O)C[C@@H]1CCNC[C@@H]1Cc1cc(-c2ccc(C(C)(C)C)cc2)on1,"inconclusive: 35.5 µM [inhibitor, full curve]",
CC(/C=C/c1ccccc1)=N/NC(=O)Cn1nnc(N)n1,"inconclusive: 5.01 µM [inhibitor, full curve, poor fit]",
O=C(Cn1ccc(=O)[nH]c1=O)NC(c1ccc(Cl)cc1)c1cccs1 (stereo not given),,inactive: -30%

SMILES,Potency,"activity change, negative = inhibition"
O=c1oc2ccc(Cl)cc2cc1-c1cn2ccccc2n1,"inconclusive: 28.2 µM [inhibitor, partial curve, poor fit]",
N#Cc1ccccc1CSc1nc(N)cc(N)n1,"inconclusive: 112 µM [inhibitor, single point]",
Cc1cc(-c2cccc(OCCn3ccnc3)c2)ccn1,"inconclusive: 12.6 µM [inhibitor, full curve, poor fit]",
CCOC(=O)c1cc(NCc2cccc(Cl)c2Cl)ccc1N1CCOCC1,"inconclusive: 56.2 µM [inhibitor, partial curve, poor fit]",
CCN(CC)CCNC(=O)c1ccc(Cn2c(=O)c3cccn3c3cccnc32)cc1,,inactive: -17.4%
CCc1ccc(C2NC(=O)NC(CN(CC)Cc3ccccc3)=C2C(=O)OC)cc1 (stereo not given),"inconclusive: 28.2 µM [inhibitor, partial curve, poor fit]",
COc1ccc(CC(=O)N2CCCN(c3cc(-c4ccc(F)cc4)[nH]n3)CC2)cc1,,inactive: 46.1%
O=C(CCN1CCOCC1)NC12CC3CC(CC(C3)C1)C2,"inconclusive: 35.5 µM [inhibitor, partial curve, poor fit]",
O=C(Cn1nc(-c2ccc(Cl)cc2)c2ccccc2c1=O)Nc1cccnc1,"inconclusive: 141 µM [inhibitor, single point]",
COc1cc(/C=C/C(=O)C23CC4CC(CC(C4)C2)C3)cc(Br)c1O,"inconclusive: 31.6 µM [inhibitor, partial curve, poor fit]",
Cc1ccc(-c2cc(C(F)F)n3ncc(C(=O)N4CCCc5ccccc54)c3n2)cc1,,inactive: 0%
O=C(Nc1cc(C(F)(F)F)ccc1N1CCCCC1)c1ccco1,,inactive: 5.87%
Cc1c(Cl)c([N+](=O)[O-])nn1CCCC(=O)Nc1cccc(Cl)c1Cl,,inactive: 8.36%
O=C(COC(=O)CNC(=O)c1ccc(Br)o1)Nc1ccc2c(c1)OCCO2,"inconclusive: 28.2 µM [inhibitor, single point]",
COc1cc(-c2nc3c4ccccc4nc(=S)n3[nH]2)cc(OC)c1OC,"inconclusive: 0.794 µM [inhibitor, full curve, poor fit]",
CN(C)S(=O)(=O)c1cccc(Nc2nc(CN3CCOCC3)nc3sc4c(c23)CCCC4)c1,,inactive: 0.0937%
CCN(CC)CCOC(=O)c1ccc(NC(=O)c2cn(-c3ccccc3)nc2-c2cccs2)cc1,"inconclusive: 50.1 µM [inhibitor, partial curve, poor fit]",
COc1ccc(S(=O)(=O)Nc2ccc3c(c2)C(=O)N([C@H](C)CO)C[C@H](C)[C@@H](CN(C)S(C)(=O)=O)O3)cc1,"inconclusive: 79.4 µM [inhibitor, single point]",
CCOc1ccc(-c2cc(C(=O)NC(C)CC)c3ccccc3n2)cc1 (stereo not given),,inactive: 2.48%
S=c1[nH]nc(CSCc2ccccc2Cl)n1C1CCCCC1,active: 44.7 µM,
CC(C)CNC(=O)c1cc(-c2cccs2)nc2ccccc12,,inactive: -6.61%
